Assay results published in patent publication US20080200369A1 (SANFORD BURNHAM MEDICAL RESEARCH INSTITUTE, published 2008).
No constants are given. Whether binding was seen depends on the method and setting. Some binding calls cover weakened binding; strength is not graded here.

Key:
[1] = target: T1, trophinin (human) (UniProt Q12816); experiment: phage library screening on HT-H monolayer; phage binding on HT-H cells by colony counting (FIG. 1A)
T1 sequence (looked up): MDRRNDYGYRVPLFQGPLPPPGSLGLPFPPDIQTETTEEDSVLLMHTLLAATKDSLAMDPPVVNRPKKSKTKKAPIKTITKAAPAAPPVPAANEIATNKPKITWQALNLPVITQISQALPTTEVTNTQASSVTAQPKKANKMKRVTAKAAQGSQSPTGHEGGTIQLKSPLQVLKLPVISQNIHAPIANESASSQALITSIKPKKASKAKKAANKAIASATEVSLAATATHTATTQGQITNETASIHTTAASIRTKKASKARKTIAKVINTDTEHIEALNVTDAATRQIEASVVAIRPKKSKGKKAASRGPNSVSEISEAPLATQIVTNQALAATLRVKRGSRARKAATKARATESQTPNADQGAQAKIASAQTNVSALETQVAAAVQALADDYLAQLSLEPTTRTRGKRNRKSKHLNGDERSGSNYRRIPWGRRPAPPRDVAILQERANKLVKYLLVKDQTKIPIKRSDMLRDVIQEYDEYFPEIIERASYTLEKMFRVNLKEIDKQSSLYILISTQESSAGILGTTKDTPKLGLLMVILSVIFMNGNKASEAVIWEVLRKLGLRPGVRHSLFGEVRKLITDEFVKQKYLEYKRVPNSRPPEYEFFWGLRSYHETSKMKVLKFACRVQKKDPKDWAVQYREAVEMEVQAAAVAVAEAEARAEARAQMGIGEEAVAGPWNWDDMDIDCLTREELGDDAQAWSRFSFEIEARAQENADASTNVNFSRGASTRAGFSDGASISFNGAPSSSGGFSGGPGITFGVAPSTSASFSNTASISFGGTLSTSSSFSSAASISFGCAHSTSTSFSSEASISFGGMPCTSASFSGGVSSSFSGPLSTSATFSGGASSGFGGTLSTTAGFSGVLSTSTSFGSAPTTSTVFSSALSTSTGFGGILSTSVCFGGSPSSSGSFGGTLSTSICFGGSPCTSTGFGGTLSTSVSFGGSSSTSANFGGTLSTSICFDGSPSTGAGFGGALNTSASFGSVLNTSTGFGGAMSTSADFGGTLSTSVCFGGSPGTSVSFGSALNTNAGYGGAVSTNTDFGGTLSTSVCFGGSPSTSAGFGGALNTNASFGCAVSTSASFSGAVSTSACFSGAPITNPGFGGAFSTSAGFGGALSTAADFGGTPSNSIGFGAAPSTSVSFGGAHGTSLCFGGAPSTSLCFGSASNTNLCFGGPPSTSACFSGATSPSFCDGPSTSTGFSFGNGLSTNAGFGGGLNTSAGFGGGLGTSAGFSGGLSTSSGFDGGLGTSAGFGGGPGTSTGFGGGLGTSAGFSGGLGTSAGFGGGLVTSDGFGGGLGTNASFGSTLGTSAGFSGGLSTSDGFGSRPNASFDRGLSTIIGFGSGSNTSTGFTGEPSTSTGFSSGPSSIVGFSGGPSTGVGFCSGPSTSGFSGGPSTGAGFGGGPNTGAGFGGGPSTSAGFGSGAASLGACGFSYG

[2] = target: T1, trophinin (human); experiment: phage overlaid on fixed human sperm; immunostaining with anti-phage (fd) antibody
[3] = target: T1, trophinin (human); experiment: phage binding assay by colony counting on fixed HT-H cell monolayers
[4] = target: T1, trophinin (human); experiment: phage bound to HT-H monolayer, lysis, immunoprecipitation with rabbit anti-M13 antibody, Western blot with anti-trophinin antibody (FIG. 1D)
[5] = target: T1, trophinin (human); experiment: phage overlaid on fixed, acid-treated human sperm (tail stains for trophinin); immunostaining with anti-phage (fd) antibody

Binder | binding [1] | also measured
SLSVGWRQSG [SEQ ID NO 20] | binds | –
LSLRGYRQAR [SEQ ID NO 21] | binds | –
GWRQLTARVP [M13-based phage displaying … (SEQ ID NO:4) peptide] | – | binding [2]: binds; binding [3]: binds; binding [4]: binds; binding [5]: binds
GWRQLTARVP [SEQ ID NO 23] | binds | –
TWRYLRSPQG [SEQ ID NO 24] | binds | –
VLWRGVAGRG [SEQ ID NO 22] | binds | –
SKGWKHWTPR [SEQ ID NO 25] | binds | –
SSLMLGGWRQ [SEQ ID NO 19] | binds | –
